Literature values as cited in publication PMC7884015 (Journal of Agricultural and Food Chemistry, 2021).

Tested on: honey bees
Details: cited from earlier work

For `CN1[C@@H]2CC[C@H]1C[C@@H](OC(=O)C(CO)c1ccccc1)C2` (stereo partly shown) [atropine, Atropine, reference compound], the LD50 is given as 0.1%.
